Test results as given in patent US12233070B2, “Methods for treating benzodiazepine misuse/use disorder” (University of M[…] Center, priority 2020, dated 2025).
Some entries share one result that the patent states for a list of compounds. For at least one compound, name, drawing or mass did not settle the structure.

Tested on: rhesus monkeys
Assay: i.v. self-administration under progressive-ratio (PR) schedule
Type: in vivo, rhesus monkey
Conditions: lorazepam 0.001-0.03, TPA023B 0.003-0.03 mg/kg/injection
From the text: The abuse potential of novel compounds can be determined by use of i.v. self-administration procedures, in which a compound is available to a subject previously trained to press a lever to obtain a known drug of abuse. Our standard procedure is to use a progressive-ratio (PR) schedule, in which an increasing number of responses are required to obtain an injection. The last response requirement completed is referred to as a “break point” (BP) and represents the maximum amount of “work” a subject will perform to obtain the drug or compound.
In the present example, eight rhesus monkeys (4 females, 4 males) were trained to respond under a schedule of i.v. midazolam (a conventional benzodiazepine) injection at 0.03 mg/kg/injection. Once self-administration had been acquired (>20 injections/daily 2-hour sessions), monkeys were trained under the PR schedule as described by Shinday et al. (2013). Daily experimental sessions consisted of five components, each made up of four trials (i.e., 20 trials total). […]
In order to directly compare lorazepam and TPA023B self-administration, we here analyzed BP values at the doses that maintained the highest level of mean injections/session and compared these BP values with those obtained after vehicle tests.

Row | Compound | number of doses maintaining significantly higher mean injections/session than vehicle [doses]
1 | CC(C)(O)c1cnn2c(-c3ccc(F)c(-c4c(F)cccc4C#N)c3)cnc2n1 [TPA023B] | ≥ 2
2 | O=C1Nc2ccc(Cl)cc2C(c2ccccc2Cl)=NC1O (centres unmarked) [lorazepam, reference compound] | ≥ 2
